No constants are given. Whether binding was seen depends on the method and setting. Binding seen in cells or lysates may run through a third protein. Some results given as binding are weak or reduced against the parent protein; the word gives no strength.
Legend:
[1] = biological target: FLAG-tagged macroH2A1.1 (UniProt O75367); assay: co-IP; anti-FLAG M2 magnetic beads, 4 °C 60 min, on MNase-digested nuclear lysates of parental or FLAG-macroH2A1.1/1.2 HEK293 T-REx cells; with or without CPT (1 µM, 30 min) and PARPi Olaparib (10 µM); washes with 150 mM KCl, 0.1% NP-40; western blot
[2] = biological target: FLAG-tagged macroH2A1.2 (UniProt O75367); assay: as above
[3] = biological target: FLAG-tagged macroH2A1.1 (UniProt O75367); assay: co-IP; Co-IP of XRCC1 with FLAG-macroH2A1.1, wild type or PAR-binding-domain mutant, with or without CPT and PARP inhibition (Supplementary Fig. 4f); cells not given

By UniProt entry, the sequences of proteins in these tests, tags left out. Where a name states a change or a piece, a line headed by the entry shows the natural chain unless it says otherwise. Chains listed by the source or under a name are the forms on record and can include a tag or linker.
UniProt O75367: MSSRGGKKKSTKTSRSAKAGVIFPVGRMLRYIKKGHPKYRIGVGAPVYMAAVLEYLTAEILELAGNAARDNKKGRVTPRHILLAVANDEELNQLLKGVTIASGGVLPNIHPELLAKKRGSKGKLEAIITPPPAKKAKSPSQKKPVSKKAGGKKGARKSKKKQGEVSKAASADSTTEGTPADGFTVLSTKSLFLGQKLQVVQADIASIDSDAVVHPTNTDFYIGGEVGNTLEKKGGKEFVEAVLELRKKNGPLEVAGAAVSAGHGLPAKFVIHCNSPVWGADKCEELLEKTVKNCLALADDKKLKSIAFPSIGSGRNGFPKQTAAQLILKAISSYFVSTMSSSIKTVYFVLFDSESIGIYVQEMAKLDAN
FLAG-tagged macroH2A1.2 (O75367, form named): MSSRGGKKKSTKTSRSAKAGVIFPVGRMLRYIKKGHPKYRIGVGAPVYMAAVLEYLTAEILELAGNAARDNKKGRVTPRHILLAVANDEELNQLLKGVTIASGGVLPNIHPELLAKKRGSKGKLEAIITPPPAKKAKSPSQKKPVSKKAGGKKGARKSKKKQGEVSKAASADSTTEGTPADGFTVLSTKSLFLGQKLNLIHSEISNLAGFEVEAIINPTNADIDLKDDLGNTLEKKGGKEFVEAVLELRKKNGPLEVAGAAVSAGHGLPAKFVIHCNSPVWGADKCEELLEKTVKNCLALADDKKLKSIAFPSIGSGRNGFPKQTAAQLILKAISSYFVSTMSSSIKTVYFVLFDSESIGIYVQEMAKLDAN
UniProt P11387: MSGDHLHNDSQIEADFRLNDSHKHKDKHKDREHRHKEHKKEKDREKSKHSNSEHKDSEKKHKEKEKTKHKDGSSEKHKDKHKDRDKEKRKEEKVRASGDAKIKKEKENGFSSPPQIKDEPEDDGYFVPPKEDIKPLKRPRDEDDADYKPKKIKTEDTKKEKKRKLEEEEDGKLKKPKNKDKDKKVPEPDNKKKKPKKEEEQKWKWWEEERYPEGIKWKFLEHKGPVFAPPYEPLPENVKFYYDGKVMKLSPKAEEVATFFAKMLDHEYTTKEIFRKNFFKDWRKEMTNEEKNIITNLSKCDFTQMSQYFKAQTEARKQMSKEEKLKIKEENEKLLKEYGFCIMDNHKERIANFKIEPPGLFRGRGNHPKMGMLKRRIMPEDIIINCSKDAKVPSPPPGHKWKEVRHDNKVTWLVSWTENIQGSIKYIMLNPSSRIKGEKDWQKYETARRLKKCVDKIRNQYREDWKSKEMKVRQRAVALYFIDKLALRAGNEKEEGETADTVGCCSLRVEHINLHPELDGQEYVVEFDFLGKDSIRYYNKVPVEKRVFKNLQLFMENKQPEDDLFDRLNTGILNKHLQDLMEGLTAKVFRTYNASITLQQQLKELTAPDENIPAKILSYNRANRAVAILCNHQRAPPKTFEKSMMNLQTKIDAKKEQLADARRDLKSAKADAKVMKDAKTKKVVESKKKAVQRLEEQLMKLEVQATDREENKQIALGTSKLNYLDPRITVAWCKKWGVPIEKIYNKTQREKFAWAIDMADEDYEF
UniProt P09874: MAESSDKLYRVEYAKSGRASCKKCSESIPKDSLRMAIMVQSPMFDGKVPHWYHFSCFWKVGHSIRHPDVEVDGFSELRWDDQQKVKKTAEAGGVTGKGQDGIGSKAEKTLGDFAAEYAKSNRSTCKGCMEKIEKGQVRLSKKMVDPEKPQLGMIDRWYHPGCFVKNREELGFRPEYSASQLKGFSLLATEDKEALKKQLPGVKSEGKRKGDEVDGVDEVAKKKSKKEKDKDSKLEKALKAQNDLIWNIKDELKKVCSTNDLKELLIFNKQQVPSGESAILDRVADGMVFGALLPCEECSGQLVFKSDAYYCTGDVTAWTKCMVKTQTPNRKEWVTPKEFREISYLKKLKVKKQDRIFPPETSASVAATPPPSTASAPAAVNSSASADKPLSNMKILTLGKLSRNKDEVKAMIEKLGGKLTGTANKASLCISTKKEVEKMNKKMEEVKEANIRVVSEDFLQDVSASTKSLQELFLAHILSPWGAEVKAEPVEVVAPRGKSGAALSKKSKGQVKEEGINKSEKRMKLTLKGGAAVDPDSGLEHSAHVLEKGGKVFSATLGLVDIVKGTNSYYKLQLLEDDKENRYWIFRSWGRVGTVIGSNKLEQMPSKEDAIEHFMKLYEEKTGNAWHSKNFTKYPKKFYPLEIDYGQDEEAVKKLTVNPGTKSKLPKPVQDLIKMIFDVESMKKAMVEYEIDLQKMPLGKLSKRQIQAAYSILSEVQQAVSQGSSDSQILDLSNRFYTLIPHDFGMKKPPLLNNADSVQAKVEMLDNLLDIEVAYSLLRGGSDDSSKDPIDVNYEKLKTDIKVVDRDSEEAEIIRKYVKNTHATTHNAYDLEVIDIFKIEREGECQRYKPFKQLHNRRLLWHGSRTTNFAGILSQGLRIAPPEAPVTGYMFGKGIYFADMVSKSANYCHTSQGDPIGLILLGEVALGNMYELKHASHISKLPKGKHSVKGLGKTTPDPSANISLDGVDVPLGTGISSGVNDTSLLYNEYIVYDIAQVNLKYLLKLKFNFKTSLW
UniProt P18887: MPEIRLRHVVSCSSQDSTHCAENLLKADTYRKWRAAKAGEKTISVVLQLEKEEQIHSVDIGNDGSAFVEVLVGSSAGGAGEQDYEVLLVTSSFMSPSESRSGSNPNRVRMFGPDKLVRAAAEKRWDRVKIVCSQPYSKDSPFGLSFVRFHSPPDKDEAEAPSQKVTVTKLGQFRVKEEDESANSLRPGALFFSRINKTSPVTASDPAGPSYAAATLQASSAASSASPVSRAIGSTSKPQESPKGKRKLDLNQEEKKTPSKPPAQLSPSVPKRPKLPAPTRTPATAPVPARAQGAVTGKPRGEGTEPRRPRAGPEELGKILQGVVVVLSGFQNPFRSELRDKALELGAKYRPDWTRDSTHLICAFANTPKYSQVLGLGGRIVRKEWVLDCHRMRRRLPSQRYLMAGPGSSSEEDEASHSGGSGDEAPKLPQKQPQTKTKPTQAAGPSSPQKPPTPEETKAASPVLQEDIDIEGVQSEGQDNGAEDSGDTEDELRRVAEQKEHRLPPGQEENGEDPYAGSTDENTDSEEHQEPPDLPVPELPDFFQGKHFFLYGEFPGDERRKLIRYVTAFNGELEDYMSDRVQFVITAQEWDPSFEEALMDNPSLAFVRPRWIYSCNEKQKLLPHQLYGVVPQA

| Substance | binding [1] | binding [2] | binding [3] |
| --- | --- | --- | --- |
| DNA topoisomerase 1 (TOP1) (from UniProt P11387 1-765) (enzyme) | binds | binds weakly |  |
| Poly(ADP-ribose) Polymerase 1 (PARP1) (from UniProt P09874 1-1014) (enzyme) | binds |  |  |
| XRCC1 (from UniProt P18887 1-633) | binds | binds weakly | binds |

From PMC12343833
